# Measurements from patent US20090258869A1, “METHODS AND COMPOUNDS FOR TREATMENT OR PREVENTION OF SUBSTANCE-RELATED DISORDERS” (The Regents of the University of California, priority 2008, published 2009).
# At least one compound was matched to its structure with a doubt left.
# Experiments:
# [1] = test system: Tyrosine hydroxylase (TH); assay: TH protein levels (immunoreactivity) by Western blot in ethanol-treated SH-SY5Y cells; format: cell-based, human; conditions: 100 mM ethanol 24 h, different doses of GA added for the last 9 h
# Method: Cell culture. […] MEM nonessential amino acid solution (Invitrogen).
# Treatments. Cells were treated with ethanol for 12-48 h in low serum media by replacing the media with ethanol every 12 h. […] PI-PLC was incubated with cells at a concentration of 0.3 u/ml for 1 h as described previously (1). Anti-GDNF neutralizing antibodies were dissolved in PBS and were used at a concentration of 10 μg/ml.
# Western blot and immunoprecipitation. Cells were collected and lysed in RIPA buffer plus protease and phosphatase inhibitor cocktails for Western blot and immunoprecipitation as described previously (1,30). Briefly, 15 μg of each homogenate was subjected to an SDS-PAGE gel and blotted on a nitrocellulose membrane for Western blot analysis with anti-TH antibody or other primary antibodies, followed by reprobing with anti-Actin antibody. Alternatively, 500 μg of each homogenate was incubated with 5 μg of anti-TH, anti-HSP90 or anti-Akt antibodies in TBS-T buffer overnight at 4° C.1 followed by a 2-h incubation with Protein G agarose beads. Immunoprecipitates were separated on an SDS-PAGE gel for Western blot analysis.
# Quantification and statistical analysis.
# [2] = test system: TH-Hsp90 association; assay: Co-immunoprecipitation of TH with Hsp90 in SH-SY5Y cells; format: cell-based, human; conditions: 100 mM ethanol 24 h, 1 μM GA added for the last 9 h
smiles,measurement,setting,value
"COC1=C2C[C@@H](C)C[C@H](OC)[C@H](O)[C@@H](C)/C=C(\C)[C@H](OC(N)=O)[C@@H](OC)/C=C\C=C(/C)C(=O)NC(=CC1=O)C2=O [GA, Geldanamycin]",ethanol-mediated increase in TH immunoreactivity,[1],dose-dependently inhibited
same,ethanol-mediated increase in TH immunoreactivity,[1]; listed as Geldanamycin,dose-dependently inhibit
same,ethanol-induced association of TH with Hsp90,[2],blocked
same,ethanol-induced association of TH with Hsp90,[2]; listed as geldanamycin,inhibited
